Literature values as cited in paper PMC6033897, “Characterization and Validation of a Human 3D Cardiac Microtissue for the Assessment of Changes in Cardiac Pathology” (Scientific Reports, 2018).
Structures can show the parent of a compound that is named as a salt.

Details: total Cmax, therapeutically relevant maximum total plasma concentration; source not given; cited from earlier work

For COc1cc2c(cc1OC)C(=O)C(CC1CCN(Cc3ccccc3)CC1)C2 (stereo not shown) [Donepezil HCl], the Cmax is listed as 200 nM.
